Measured values: patent publication US20170081401A1 (CLOSED JOINT STOCK COMPANY BIOCAD, published 2017)
Results are given in words; binding and its absence hold for the method and conditions named. Some binding calls cover weakened binding; strength is not graded here.

Amino acid sequences for entries named in this document (tags omitted). A change or cut given only in a name is not applied to a line headed by its entry. Residues count along the entry.
UniProt Q96F46: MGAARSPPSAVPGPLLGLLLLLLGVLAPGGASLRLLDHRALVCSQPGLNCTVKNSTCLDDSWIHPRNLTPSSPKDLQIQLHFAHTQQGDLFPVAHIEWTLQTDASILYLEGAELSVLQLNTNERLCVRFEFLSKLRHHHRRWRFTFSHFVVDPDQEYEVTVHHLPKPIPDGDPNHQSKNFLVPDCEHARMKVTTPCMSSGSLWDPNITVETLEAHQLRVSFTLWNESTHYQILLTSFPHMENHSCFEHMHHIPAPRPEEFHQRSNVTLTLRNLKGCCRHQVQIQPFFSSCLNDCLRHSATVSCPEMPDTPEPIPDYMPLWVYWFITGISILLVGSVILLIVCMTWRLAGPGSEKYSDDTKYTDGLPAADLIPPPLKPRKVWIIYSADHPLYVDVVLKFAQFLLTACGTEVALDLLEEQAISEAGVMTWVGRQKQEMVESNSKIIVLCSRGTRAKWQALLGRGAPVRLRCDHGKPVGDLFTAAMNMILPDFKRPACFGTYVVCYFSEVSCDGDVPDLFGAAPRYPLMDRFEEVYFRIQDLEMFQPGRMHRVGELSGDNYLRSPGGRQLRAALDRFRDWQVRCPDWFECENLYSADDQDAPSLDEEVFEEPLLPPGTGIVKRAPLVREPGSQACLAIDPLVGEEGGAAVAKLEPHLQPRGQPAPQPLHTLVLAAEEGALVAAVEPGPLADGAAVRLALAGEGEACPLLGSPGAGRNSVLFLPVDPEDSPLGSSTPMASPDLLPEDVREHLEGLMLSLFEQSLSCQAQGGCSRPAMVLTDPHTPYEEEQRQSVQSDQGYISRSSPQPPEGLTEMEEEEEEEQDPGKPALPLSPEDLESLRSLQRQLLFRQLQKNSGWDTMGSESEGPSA
UniProt Q16552, residues 24-155: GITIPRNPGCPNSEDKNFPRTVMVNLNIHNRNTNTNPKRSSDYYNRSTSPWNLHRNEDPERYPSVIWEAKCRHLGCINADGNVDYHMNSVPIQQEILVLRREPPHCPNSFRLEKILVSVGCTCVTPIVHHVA

Target: IL-17RA-Fc receptor (R&D Systems) (Homo sapiens (Human)) (UniProt Q96F46)
Assay: ELISA, coated IL-17RA-Fc 1 ug/ml, IL-17A-His6-Flag 0.4 ug/ml without blocking Fab, detection with anti-FLAG M2 and anti-mouse IgG-HRP, A450

IL-17A-His6-Flag (from UniProt Q16552 24-155) (ligand)
binding: binds
